The supplement of paper PMC12889115
The list shows a part of the results. These are raw signals, not scaled to a control.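 In the initial screen, polymyxin B was used at a concentration that permeabilizes Salmonella's outer membrane but not its inner membrane. Maximum growth was set by DMSO wells with or without polymyxin B. Since plates varied, data were ranked per plate, and compounds giving the lowest OD600 advanced as hits.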

System: Salmonella enterica serovar Typhimurium SL1344
Experiment: bacterial growth OD600 after 18 h with compound and polymyxin B; higher = more bacterial growth (less inhibition)
Conditions: 50 µM, Mueller-Hinton broth

SMILES: CCC(=O)N[C@@H]1c2ccccc2C2(CCN(Cc3ccc(OC)c(C)c3OC)CC2)[C@H]1OCCOC
- bacterial growth OD600 (polymyxin B 0.75 µg/mL): 0.717

SMILES: CCC1CN(Cc2cccc(OC)c2O)Cc2cc(OC)ccc2O1 (stereo not given)
- bacterial growth OD600 (polymyxin B 0.75 µg/mL): 0.806

SMILES: Cc1c(-c2ccc(F)cc2)[nH]c2ccc(CNC(=O)CCn3cnnn3)cc12
- bacterial growth OD600 (polymyxin B 1 µg/mL): 0.523

SMILES: CCOc1ccc(CN2CCC(N3CCC(C(=O)NC(C)C)CC3)CC2)cc1
- bacterial growth OD600 (polymyxin B 1 µg/mL): 0.903

SMILES: CN(Cc1cccc(O)c1)CC1CCCN(CCc2ccc(Cl)cc2)C1 (stereo not given)
- bacterial growth OD600 (polymyxin B 1 µg/mL): 0.648

SMILES: CC(=O)c1ccc(-c2cc(F)cc3c2OC(CNC(=O)Cc2cccc(F)c2)C3)s1 (stereo not given)
- bacterial growth OD600 (polymyxin B 0.75 µg/mL): 0.645

SMILES: CC(C)CN1C(=O)NC(Cc2cccc(F)c2)(C2CCN(C(=O)c3cc(C4CC4)n[nH]3)CC2)C1=O (stereo not given)
- bacterial growth OD600 (polymyxin B 0.75 µg/mL): 0.867

SMILES: COc1cc(Cl)c(CN2CCCC(CO)(Cc3cccc(Cl)c3)C2)cc1OC (stereo not given)
- bacterial growth OD600 (polymyxin B 1 µg/mL): 0.531

SMILES: COc1ccc(CC2=NOC(CNC(=O)c3ccccc3-n3cccn3)C2)cc1 (stereo not given)
- bacterial growth OD600 (polymyxin B 0.75 µg/mL): 0.89

SMILES: CC(=O)CCC(=O)NC1CCCc2c1cnn2-c1cc(C)cc(C)c1 (stereo not given)
- bacterial growth OD600 (polymyxin B 0.75 µg/mL): 0.7

SMILES: COCCN1C(=O)CC(CC(=O)N2CCN(C3CCCCC3)C(=O)C2)(c2cccc(OC)c2)C1=O (stereo not given)
- bacterial growth OD600 (polymyxin B 0.75 µg/mL): 0.815

SMILES: COCC1CCCCN1C(=O)c1csc2nc(-c3cc(C)ccc3C)cn12 (stereo not given)
- bacterial growth OD600 (polymyxin B 0.75 µg/mL): 0.562

SMILES: O=C(CCCn1cncn1)NCCN1Cc2ccccc2OC(c2ccccc2F)C1 (stereo not given)
- bacterial growth OD600 (polymyxin B 0.75 µg/mL): 0.863

SMILES: Cc1ccccc1CC(C1CCN(C(=O)CCc2scnc2C)CC1)N(C)C(=O)Cn1cccn1 (stereo not given)
- bacterial growth OD600 (polymyxin B 0.75 µg/mL): 0.809

SMILES: CSc1ccccc1C(=O)NCc1c(C)ncc2c1CCN(C(=O)c1csc(C)n1)C2
- bacterial growth OD600 (polymyxin B 0.75 µg/mL): 0.826

SMILES: O=C(CCC1CCN(C(=O)CCc2ccc3c(c2)OCO3)CC1)NC1CC1
- bacterial growth OD600 (polymyxin B 1 µg/mL): 0.955

SMILES: O=C(NC1CC(=O)N(Cc2ccc(F)cc2)C1)C(=O)c1ccccc1 (stereo not given)
- bacterial growth OD600 (polymyxin B 1 µg/mL): 0.848

SMILES: COc1cccc(CC2(CCC(=O)N3CCCC(COc4cccc(C)c4)C3)CCC(=O)N2)c1 (stereo not given)
- bacterial growth OD600 (polymyxin B 0.75 µg/mL): 0.02

SMILES: COCCn1c(CN2CCC(OC)CC2)cnc1S(=O)(=O)C1CCCCCC1
- bacterial growth OD600 (polymyxin B 0.75 µg/mL): 0.743

SMILES: CC(=O)Nc1cc(C(=O)NCC2(N3CCOCC3)CCCC2)c2c(c1)nc(C)n2Cc1ccccc1
- bacterial growth OD600 (polymyxin B 0.75 µg/mL): 0.754

SMILES: COc1ccc(CC2(CCC(=O)N3CCN(c4ccccc4)CC3C)CCC(=O)N2)c(F)c1 (stereo not given)
- bacterial growth OD600 (polymyxin B 0.75 µg/mL): 0.776

SMILES: COCCCC1CCN(Cc2nc(-c3ccccc3)no2)CC1
- bacterial growth OD600 (polymyxin B 1 µg/mL): 0.922

SMILES: O=C(c1n[nH]c2ccccc12)N1CCC2(CCCN(CC3CC3)C2)C1 (stereo not given)
- bacterial growth OD600 (polymyxin B 0.75 µg/mL): 0.807

SMILES: COc1ccc(CCN2CC(NC(=O)C(C)C)CC2=O)cc1 (stereo not given)
- bacterial growth OD600 (polymyxin B 1 µg/mL): 0.697

SMILES: COc1cccc(C(=O)NCC2CCCN(C(=O)Cc3cccc(C)c3)C2)c1OC (stereo not given)
- bacterial growth OD600 (polymyxin B 1 µg/mL): 0.902

SMILES: CCn1ccnc1CN1CCN(Cc2ccc(OC)c(C)c2)C(CCO)C1 (stereo not given)
- bacterial growth OD600 (polymyxin B 1 µg/mL): 0.913

SMILES: O=C(NCCc1ccccn1)C1CC12CCN(C(=O)/C=C/c1ccc(Cl)cc1)CC2 (stereo not given)
- bacterial growth OD600 (polymyxin B 0.75 µg/mL): 0.939

SMILES: CCOC(=O)C1(CCCc2ccccc2)CCCN(C(=O)c2ccc3c(c2)OCO3)C1 (stereo not given)
- bacterial growth OD600 (polymyxin B 1 µg/mL): 0.076

SMILES: COc1ccc(-n2cc(CNCCN3CCC(O)CC3)c(-c3cccc(F)c3)n2)cc1
- bacterial growth OD600 (polymyxin B 1 µg/mL): 0.237

SMILES: Cc1nc(N(C)C2CCCCC2)ncc1C(C)NC1CCSCC1 (stereo not given)
- bacterial growth OD600 (polymyxin B 1 µg/mL): 1.26
